Data from PMC6562968.
Results are given in words; binding and its absence hold for the method and conditions named. In cells and extracts the contact can be indirect. Binding can be weak; no strength is given. Sequences can lack the tags named with a protein.

Protein sequences, listed by entry. Tags and fused reporters are not part of them. Lines headed by an entry give the natural chain unless they say otherwise; changes in a name come on top.
UniProt P67775: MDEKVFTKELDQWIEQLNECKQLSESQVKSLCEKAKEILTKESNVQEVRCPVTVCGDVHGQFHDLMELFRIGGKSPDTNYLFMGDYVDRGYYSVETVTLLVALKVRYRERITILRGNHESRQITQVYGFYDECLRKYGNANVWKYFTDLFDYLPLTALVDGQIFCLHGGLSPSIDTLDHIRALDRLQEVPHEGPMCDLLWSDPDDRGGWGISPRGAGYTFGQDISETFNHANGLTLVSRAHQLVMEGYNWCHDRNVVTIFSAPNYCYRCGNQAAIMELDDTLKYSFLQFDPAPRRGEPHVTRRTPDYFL

Biological target: T1, GST–NDRG2 (N-Myc downstream-regulated gene 2) (UniProt Q9UN36)
T1 sequence: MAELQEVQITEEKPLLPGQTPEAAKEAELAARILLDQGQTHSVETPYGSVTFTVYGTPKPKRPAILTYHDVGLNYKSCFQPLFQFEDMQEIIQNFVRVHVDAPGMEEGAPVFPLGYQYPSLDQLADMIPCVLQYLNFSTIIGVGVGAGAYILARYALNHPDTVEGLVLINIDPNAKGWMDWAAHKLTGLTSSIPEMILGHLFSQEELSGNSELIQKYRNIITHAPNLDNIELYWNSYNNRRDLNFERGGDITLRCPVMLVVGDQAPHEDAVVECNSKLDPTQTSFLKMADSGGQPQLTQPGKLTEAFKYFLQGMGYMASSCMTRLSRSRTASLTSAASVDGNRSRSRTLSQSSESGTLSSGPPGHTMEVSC
Assay: pull-down; GST pull-down on glutathione sepharose 4B from lysates of HEK293 cells co-transfected with GST, GST–NDRG2 or NDRG2 ΔC and HA–GSK3β; 0.5% NP40, 50 mM Tris-HCl pH 8.0, 150 mM NaCl, 4 °C overnight; immunoblotting

With “endogenous PP2Ac (protein phosphatase 2A catalytic subunit) (from UniProt P67775) (enzyme)” the binding was “binds”.
